According to article PMC9458672:
Results are given in words; binding and its absence hold for the method and conditions named. Some results given as binding are weak or reduced against the parent protein; the word gives no strength. Sequences can lack the tags named with a protein.

By UniProt entry, the sequences of proteins in these tests, tags left out.
UniProt Q15286: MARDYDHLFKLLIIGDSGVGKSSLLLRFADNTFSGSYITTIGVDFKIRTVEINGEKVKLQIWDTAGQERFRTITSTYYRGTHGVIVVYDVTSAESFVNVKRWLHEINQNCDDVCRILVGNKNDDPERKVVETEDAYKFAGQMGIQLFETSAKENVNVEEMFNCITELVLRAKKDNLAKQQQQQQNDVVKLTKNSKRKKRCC
UniProt P51159: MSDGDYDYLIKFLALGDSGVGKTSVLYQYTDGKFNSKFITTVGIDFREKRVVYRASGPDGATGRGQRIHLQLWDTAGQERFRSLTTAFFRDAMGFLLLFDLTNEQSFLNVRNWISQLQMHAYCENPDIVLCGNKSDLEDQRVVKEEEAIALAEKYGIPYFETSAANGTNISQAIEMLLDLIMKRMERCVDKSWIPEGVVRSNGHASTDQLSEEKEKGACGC

B1: ACAP2 (tagged, overexpressed) (protein, UniProt Q15057 1-778)
chain: MKMTVDFEECLKDSPRFRAALEEVEGDVAELELKLDKLVKLCIAMIDTGKAFCVANKQFMNGIRDLAQYSSNDAVVETSLTKFSDSLQEMINFHTILFDQTQRSIKAQLQNFVKEDLRKFKDAKKQFEKVSEEKENALVKNAQVQRNKQHEVEEATNILTATRKCFRHIALDYVLQINVLQSKRRSEILKSMLSFMYAHLAFFHQGYDLFSELGPYMKDLGAQLDRLVVDAAKEKREMEQKHSTIQQKDFSSDDSKLEYNVDAANGIVMEGYLFKRASNAFKTWNRRWFSIQNNQLVYQKKFKDNPTVVVEDLRLCTVKHCEDIERRFCFEVVSPTKSCMLQADSEKLRQAWIKAVQTSIATAYREKGDESEKLDKKSSPSTGSLDSGNESKEKLLKGESALQRVQCIPGNASCCDCGLADPRWASINLGITLCIECSGIHRSLGVHFSKVRSLTLDTWEPELLKLMCELGNDVINRVYEANVEKMGIKKPQPGQRQEKEAYIRAKYVERKFVDKYSISLSPPEQQKKFVSKSSEEKRLSISKFGPGDQVRASAQSSVRSNDSGIQQSSDDGRESLPSTVSANSLYEPEGERQDSSMFLDSKHLNPGLQLYRASYEKNLPKMAEALAHGADVNWANSEENKATPLIQAVLGGSLVTCEFLLQNGANVNQRDVQGRGPLHHATVLGHTGQVCLFLKRGANQHATDEEGKDPLSIAVEAANADIVTLLRLARMNEEMRESEGLYGQPGDETYQDIFRDFSQMASNNPEKLNRFQQDSQKF
B2: MICAL-1 (tagged, overexpressed), Q8TDZ2 1-1067 (protein)
chain: MASPTSTNPAHAHFESFLQAQLCQDVLSSFQELCGALGLEPGGGLPQYHKIKDQLNYWSAKSLWTKLDKRAGQPVYQQGRACTSTKCLVVGAGPCGLRVAVELALLGARVVLVEKRTKFSRHNVLHLWPFTIHDLRALGAKKFYGRFCTGTLDHISIRQLQLLLLKVALLLGVEIHWGVTFTGLQPPPRKGSGWRAQLQPNPPAQLANYEFDVLISAAGGKFVPEGFKVREMRGKLAIGITANFVNGRTVEETQVPEISGVARIYNQSFFQSLLKATGIDLENIVYYKDDTHYFVMTAKKQCLLRLGVLRQDWPDTNRLLGSANVVPEALQRFTRAAADFATHGKLGKLEFAQDAHGQPDVSAFDFTSMMRAESSARVQEKHGARLLLGLVGDCLVEPFWPLGTGVARGFLAAFDAAWMVKRWAEGAESLEVLAERESLYQLLSQTSPENMHRNVAQYGLDPATRYPNLNLRAVTPNQVRDLYDVLAKEPVQRNNDKTDTGMPATGSAGTQEELLRWCQEQTAGYPGVHVSDLSSSWADGLALCALVYRLQPGLLEPSELQGLGALEATAWALKVAENELGITPVVSAQAVVAGSDPLGLIAYLSHFHSAFKSMAHSPGPVSQASPGTSSAVLFLSKLQRTLQRSRAKENAEDAGGKKLRLEMEAETPSTEVPPDPEPGVPLTPPSQHQEAGAGDLCALCGEHLYVLERLCVNGHFFHRSCFRCHTCEATLWPGGYEQHPGDGHFYCLQHLPQTDHKAEGSDRGPESPELPTPSENSMPPGLSTPTASQEGAGPVPDPSQPTRRQIRLSSPERQRLSSLNLTPDPEMEPPPKPPRSCSALARHALESSFVGWGLPVQSPQALVAMEKEEKESPFSSEEEEEDVPLDSDVEQALQTFAKTSGTMNNYPTWRRTLLRRAKEEEMKRFCKAQTIQRRLNEIEAALRELEAEGVKLELALRRQSSSPEQQKKLWVGQLLQLVDKKNSLVAEEAELMITVQELNLEEKQWQLDQELRGYMNREENLKTAADRQAEDQVLRKLVDLVNQRDALIRFQEERRLSELALGTGAQG
B3: endogenous podocalyxin, O00592 23-558 (protein)
chain: SPSPSPSPSQNATQTTTDSSNKTAPTPASSVTIMATDTAQQSTVPTSKANEILASVKATTLGVSSDSPGTTTLAQQVSGPVNTTVARGGGSGNPTTTIESPKSTKSADTTTVATSTATAKPNTTSSQNGAEDTTNSGGKSSHSVTTDLTSTKAEHLTTPHPTSPLSPRQPTSTHPVATPTSSGHDHLMKISSSSSTVAIPGYTFTSPGMTTTLLETVFHHVSQAGLELLTSGDLPTLASQSAGITASSVISQRTQQTSSQMPASSTAPSSQETVQPTSPATALRTPTLPETMSSSPTAASTTHRYPKTPSPTVAHESNWAKCEDLETQTQSEKQLVLNLTGNTLCAGGASDEKLISLICRAVKATFNPAQDKCGIRLASVPGSQTVVVKEITIHTKLPAKDVYERLKDKWDELKEAGVSDMKLGDQGPPEEAEDRFSMPLIITIVCMASFLLLVAALYGCCHQRLSQRKDQQRLTEELQTVENGYHDNPTLEVMETSSEMQEKKVVSLNGELGDSWIVPLDNLTKDDLDEEEDTHL
B4: MICAL-L1 (tagged, overexpressed), Q8N3F8 1-863 (protein)
chain: MAGPRGALLAWCRRQCEGYRGVEIRDLSSSFRDGLAFCAILHRHRPDLLDFDSLSKDNVFENNRLAFEVAEKELGIPALLDPNDMVSMSVPDCLSIMTYVSQYYNHFCSPGQAGVSPPRKGLAPCSPPSVAPTPVEPEDVAQGEELSSGSLSEQGTGQTPSSTCAACQQHVHLVQRYLADGRLYHRHCFRCRRCSSTLLPGAYENGPEEGTFVCAEHCARLGPGTRSGTRPGPFSQPKQQHQQQLAEDAKDVPGGGPSSSAPAGAEADGPKASPEARPQIPTKPRVPGKLQELASPPAGRPTPAPRKASESTTPAPPTPRPRSSLQQENLVEQAGSSSLVNGRLHELPVPKPRGTPKPSEGTPAPRKDPPWITLVQAEPKKKPAPLPPSSSPGPPSQDSRQVENGGTEEVAQPSPTASLESKPYNPFEEEEEDKEEEAPAAPSLATSPALGHPESTPKSLHPWYGITPTSSPKTKKRPAPRAPSASPLALHASRLSHSEPPSATPSPALSVESLSSESASQTAGAELLEPPAVPKSSSEPAVHAPGTPGNPVSLSTNSSLASSGELVEPRVEQMPQASPGLAPRTRGSSGPQPAKPCSGATPTPLLLVGDRSPVPSPGSSSPQLQVKSSCKENPFNRKPSPAASPATKKATKGSKPVRPPAPGHGFPLIKRKVQADQYIPEEDIHGEMDTIERRLDALEHRGVLLEEKLRGGLNEGREDDMLVDWFKLIHEKHLLVRRESELIYVFKQQNLEQRQADVEYELRCLLNKPEKDWTEEDRAREKVLMQELVTLIEQRNAIINCLDEDRQREEEEDKMLEAMIKKKEFQREAEPEGKKKGKFKTMKMLKLLGNKRDAKSKSPRDKS

Assays:
Test in all cases: mitochondrial mislocalisation (Tom20 tethering) by fluorescence microscopy; bait tethered to mitochondria by a Tom20 tag and co-expressed with the candidate partner (or stained for the endogenous one) in HUVECs; relocation of the partner to mitochondria read by imaging and Pearson's coefficient
[1] = molecular target: Tom20-Rab35 wild-type (mitochondrial-targeted Rab35) (UniProt Q15286)
tom20-Rab27a = tom20-Rab27a (UniProt P51159)
[2] = molecular target: Tom20-Rab35 wild-type (mitochondrial-targeted Rab35), Q15286; conditions: remark: other sources report otherwise

Binder	binding [1]	binding (tom20-Rab27a)	binding [2]
B1	binds	no binding	
B2			no binding
B3			no binding
B4			no binding
